# Assay results taken from publication PMC7819943, “Rice protein-binding microarrays: a tool to detect cis-acting elements near promoter regions in rice”.
# Sequences of proteins named here, by UniProt entry; tags and fusion partners are left off.
# UniProt Q0JBA9, entry or part of it: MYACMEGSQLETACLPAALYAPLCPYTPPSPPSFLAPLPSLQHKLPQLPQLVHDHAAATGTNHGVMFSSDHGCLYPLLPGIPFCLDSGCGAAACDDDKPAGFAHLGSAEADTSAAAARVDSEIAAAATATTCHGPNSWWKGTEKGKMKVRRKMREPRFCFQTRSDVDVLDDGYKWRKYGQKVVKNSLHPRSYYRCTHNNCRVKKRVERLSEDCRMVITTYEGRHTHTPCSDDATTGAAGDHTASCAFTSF
# This is one part of the list.
# Target: OsWRKY34 (Oryza sativa, UniProt Q0JBA9 1-250)
# Experiment: protein-binding microarray (RPBM); PBS, 2% BSA, 51.3 ng/ul salmon testes DNA, 50 uM zinc acetate, 200 nM TF, 25 C, 1 h; high values mean tight binding
# Conditions: protein: recombinant; tags: N-terminal polyhistidine and DsRed monomer fusion (pET32a); label: CyDye5-dUTP incorporated in the synthesized complementary strand; 3' TTTTT single-stranded linker to array surface; dsDNA, one strand shown
# Method in brief: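 Binding signal is reported as fluorescence intensity per feature (arbitrary units) from an Axon 4000B scanner. Incubation used 200 nM of each Ni–NTA-purified, N-terminally polyhistidine- and DsRed-fused transcription factor from E. coli BL21-CodonPlus on a double-stranded custom Agilent array for 1 h at 25 °C, with 50 µM zinc acetate in the buffer, followed by washing.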
row,Sequence,binding signal
1,CCATTTCCCGTTCACACCCTCCGTTTTTCCATTACAAAGGCGGAGTCACCTAGTGCAG,8280 fluorescence intensity (a.u.)
2,CTGCACTGTTTGCCTCAGTTGGGTTGGTTTGGTTTGGTTGCGGAGTCACCTAGTGCAG,48200 fluorescence intensity (a.u.)
3,ACCGCCGCCGCACTCCACCGCGGCCTACCCTTGCCGGCGCCGGAGTCACCTAGTGCAG,10500 fluorescence intensity (a.u.)
4,GTCTGCAATTGTTTTCTTTTGTCATGACCAGACAGCAAAACGGAGTCACCTAGTGCAG,8210 fluorescence intensity (a.u.)
5,TTCCCTTTAATCGCGCGTCGCACCACCCGCTCCCCAACAACGGAGTCACCTAGTGCAG,8100 fluorescence intensity (a.u.)
6,CCAGCCAAAGTTCTCTATCAGTGCCCTTAAGTTATAGCATCGGAGTCACCTAGTGCAG,9190 fluorescence intensity (a.u.)
7,ATCTTTTTTGTTTGACTGATATATGGCTCCGCATATTATGCGGAGTCACCTAGTGCAG,8160 fluorescence intensity (a.u.)
8,TCTATGCCCTTGTTTAGTCCTCAACTTTTTTTTTCAAACTCGGAGTCACCTAGTGCAG,8710 fluorescence intensity (a.u.)
9,TGTATCATAATTACATACGACCACCTATACATTTGTCGACCGGAGTCACCTAGTGCAG,8830 fluorescence intensity (a.u.)
10,TCCACATCTAGATTTTTATTTTTTGCGCAGAGCCATGTATCGGAGTCACCTAGTGCAG,9080 fluorescence intensity (a.u.)
11,TTTTGTTGTTGATCCTGACACGCCGTTGCTTTGCTTCAGGCGGAGTCACCTAGTGCAG,8250 fluorescence intensity (a.u.)
12,CTCGCTCTCGCCCTCAGGTGCCCGTCGTTCGGATCCGCCACGGAGTCACCTAGTGCAG,8780 fluorescence intensity (a.u.)
13,TGCCATCCTGATCCAGTTTGATTTCTCCGTCGAGCAGCAACGGAGTCACCTAGTGCAG,8380 fluorescence intensity (a.u.)
14,GCTGTTGACGTACATGTCGTCATATACGCATGTCCTCGTTCGGAGTCACCTAGTGCAG,11400 fluorescence intensity (a.u.)
15,CGTTTAAGATGTGAACATTATTTTGGGGTTTATGGCACTCCGGAGTCACCTAGTGCAG,8950 fluorescence intensity (a.u.)
16,TGTTTTGCACCTCTAATAAAGCATTTTCTTAACTTTTCTTCGGAGTCACCTAGTGCAG,8120 fluorescence intensity (a.u.)
17,CAATCCATCAAACATGCAGTCAAGGTGTATTATTCAGTATCGGAGTCACCTAGTGCAG,9880 fluorescence intensity (a.u.)
18,TGTATTGTTATTTACGATTCCTTTTTTTCCCTTGCAGCTACGGAGTCACCTAGTGCAG,8230 fluorescence intensity (a.u.)
19,ACTGCCGGTCCTCACACACGACACACCTAAACAGATCAACCGGAGTCACCTAGTGCAG,8370 fluorescence intensity (a.u.)
20,CCCACTAAAACCCCACTTACGCGCACAAACAAAGCCGAATCGGAGTCACCTAGTGCAG,8770 fluorescence intensity (a.u.)
21,GTTCACAAATACTCCAAATCGTTTGGCCCACTTATATTCCCGGAGTCACCTAGTGCAG,8740 fluorescence intensity (a.u.)

row,Sequence,binding signal
1,GTCTATCTCTGTCTCTCTCTCTCACACAAACACTACGATACGGAGTCACCTAGTGCAG,8200 fluorescence intensity (a.u.)
2,TTTGGCCTTGCGGTTTGTTCGTTGATTTGGTTCCACGCATCGGAGTCACCTAGTGCAG,13000 fluorescence intensity (a.u.)
3,CCCCGCAACAGCCGCGATCCATGCCCGCGCGGTGATTTCCCGGAGTCACCTAGTGCAG,8050 fluorescence intensity (a.u.)
4,CGTGTCTTCTGTGTTTGATCTATTGTTATTTATCGTTTGTCGGAGTCACCTAGTGCAG,14000 fluorescence intensity (a.u.)
5,CGCCTCGCATCTGTTTGGCTTCCACGCCACTGCTCTGCAACGGAGTCACCTAGTGCAG,8160 fluorescence intensity (a.u.)
6,TAATGATCCCATAATTAGCACTGCCAATTCGTACGCTTGCCGGAGTCACCTAGTGCAG,8200 fluorescence intensity (a.u.)
7,CTGCTACATGTGGCCGGTCGGTTGCAATGGTTGTAATTATCGGAGTCACCTAGTGCAG,8230 fluorescence intensity (a.u.)
8,CAGACGTTCACCATCTTCCGCGTCCCCGCCTTTCTTCGCGCGGAGTCACCTAGTGCAG,9290 fluorescence intensity (a.u.)
9,TTAGTGGGGTTATTTAGCTTTTTTTTTAAGAAGTCTGCTTCGGAGTCACCTAGTGCAG,9750 fluorescence intensity (a.u.)
10,CTCTCTAACTGCAGATTTCCCTCCCCTTTCAACGCGCGCGCGGAGTCACCTAGTGCAG,8110 fluorescence intensity (a.u.)
11,CTCCATATATTCGTTACCAGACTGTCACTGTTTCATGTCACGGAGTCACCTAGTGCAG,9720 fluorescence intensity (a.u.)
12,TCATCGCGGGGCGGGGTGTAGCGGGTGCGAAAAGGAGGCGCGGAGTCACCTAGTGCAG,9910 fluorescence intensity (a.u.)
13,AAAATGCCCTTGTTACTTATTTGTGAACTTTGTTAAATACCGGAGTCACCTAGTGCAG,9430 fluorescence intensity (a.u.)
14,AGTTATCATGTTTCTGTTGTTATCTCTTTATCCTTATCTCCGGAGTCACCTAGTGCAG,12500 fluorescence intensity (a.u.)
15,CTTCGCAGCCGCCGCCGGCGGGGAGGGGAGGGCTCCGCGGCGGAGTCACCTAGTGCAG,8600 fluorescence intensity (a.u.)
16,GTTTGGCTGTTTATTTCTTAGTATTAAACTCTGGACATATCGGAGTCACCTAGTGCAG,8910 fluorescence intensity (a.u.)
17,CCTGTTTTAGCTAGCCTTTGTCATATACCAAAACCACACCCGGAGTCACCTAGTGCAG,8150 fluorescence intensity (a.u.)
18,CATGTTGCGCATATTTGATCTGCTCATGTTTTACTGCTTACGGAGTCACCTAGTGCAG,8210 fluorescence intensity (a.u.)
19,GCCAATGCCTCGCTTCGTCGCCTGCGGCTTCTGCGACCTCCGGAGTCACCTAGTGCAG,9630 fluorescence intensity (a.u.)
20,ATACTTCAAATATGTATCCGTATATCCGATGTGACACGCCCGGAGTCACCTAGTGCAG,8450 fluorescence intensity (a.u.)
21,AAATCATCCTTGGGCCCACTTAATATGCCATATGCCTATTCGGAGTCACCTAGTGCAG,10100 fluorescence intensity (a.u.)

row,Sequence,binding signal
1,TCTCTGCTTTCCGTCGCTTAACACAGTTAACACCAACGCACGGAGTCACCTAGTGCAG,12700 fluorescence intensity (a.u.)
2,TCTACCTTTTTTCGCTTTGAGTGTTTCTACTCTGCTGCTACGGAGTCACCTAGTGCAG,11600 fluorescence intensity (a.u.)
3,ACCATCAAGTTCTGCTTTTCTTCCCCATGTTTTTTTGCCCCGGAGTCACCTAGTGCAG,10700 fluorescence intensity (a.u.)
4,AAGCTAGACCACGTAACTTCACCTATTGCAACACATATATCGGAGTCACCTAGTGCAG,9970 fluorescence intensity (a.u.)
5,CGATCGCAATTTATACTTCATGGTCAAATATCTGTTACGTCGGAGTCACCTAGTGCAG,8280 fluorescence intensity (a.u.)
6,TCCGTTTGTTCGTATTATAACTTTGTGTTTGTTATTGGGGCGGAGTCACCTAGTGCAG,11400 fluorescence intensity (a.u.)
7,AAACACCACTAGTCCATACTTAAATTTAATGTTGCTTATCCGGAGTCACCTAGTGCAG,10100 fluorescence intensity (a.u.)
8,GCTTCCAGTCCAGCCCGCTCGCCGTCTCGCCATTTTGACCCGGAGTCACCTAGTGCAG,10700 fluorescence intensity (a.u.)
9,ACCGACTTTAATCACCAGCCCATCGTTAGCTAGCCAAAATCGGAGTCACCTAGTGCAG,10100 fluorescence intensity (a.u.)
10,AGATGTTTCCGCTGATACTTTGATACGTCGTCCTTATTTGCGGAGTCACCTAGTGCAG,10800 fluorescence intensity (a.u.)
11,TTAACCCTTTATTCCTTTTTTCTTTTTACATACCCCTCGGCGGAGTCACCTAGTGCAG,8250 fluorescence intensity (a.u.)
12,GACCGGCAACTTTCTTGTTCTACGTGAGCACATTTCCCGACGGAGTCACCTAGTGCAG,9000 fluorescence intensity (a.u.)
13,GATTTCTTATCCTTCTTCTTGTTGCTAATCTCGATCGATCCGGAGTCACCTAGTGCAG,12700 fluorescence intensity (a.u.)
14,TCTCATTGGCCGGAACAAGTCACGCCACGCCCGTTTCCTCCGGAGTCACCTAGTGCAG,8150 fluorescence intensity (a.u.)
15,TTAATATGTAGCTTATGTTTTGTGGGTAGTATAGGTATATCGGAGTCACCTAGTGCAG,9300 fluorescence intensity (a.u.)
16,GCACACGTTGTACTACAACCCTAGCAGTCAGCTCTGCTTTCGGAGTCACCTAGTGCAG,8960 fluorescence intensity (a.u.)
17,CGCTACTCATACGATCCCGCTTGTCTCTCGGCTTCAACCTCGGAGTCACCTAGTGCAG,11200 fluorescence intensity (a.u.)
18,ATTCAAGGAGTTGTTCAAAGCTACCAATGGCTTTGTTGACCGGAGTCACCTAGTGCAG,8080 fluorescence intensity (a.u.)
19,AATTAGTTTTGATGATCCACTGATGAATCAGTTTCTTATTCGGAGTCACCTAGTGCAG,8430 fluorescence intensity (a.u.)
20,TTGGTTCTTGCTTGTGTGAGAGGATTCGTTGTTCTTATAACGGAGTCACCTAGTGCAG,8610 fluorescence intensity (a.u.)
21,ATCATGTGGGATGGATCCTATTACTCAGCTATATGTTGTCCGGAGTCACCTAGTGCAG,8350 fluorescence intensity (a.u.)

row,Sequence,binding signal
1,AAGCATCATCACTGTCGCTGTCATCAATCATTGTCACTTACGGAGTCACCTAGTGCAG,9590 fluorescence intensity (a.u.)
2,CACGTTCAACGTTTGACCACTCGTCTTATTTAAAATTTTTCGGAGTCACCTAGTGCAG,9360 fluorescence intensity (a.u.)
3,TTAGCTGCAGTACTTTTGCACAAACGCCTCATCTACTGTGCGGAGTCACCTAGTGCAG,8780 fluorescence intensity (a.u.)
4,AATCATCATGGTCATTATCACTTAAGCTCAAAACTTAATTCGGAGTCACCTAGTGCAG,8400 fluorescence intensity (a.u.)
5,TCCCATTTTGCCCCTACGCTCGCCCACCTATCTTACCACTCGGAGTCACCTAGTGCAG,12600 fluorescence intensity (a.u.)
6,ACACACCACCGCGACACATCGCACGCATCATTCTGAATTTCGGAGTCACCTAGTGCAG,8820 fluorescence intensity (a.u.)
7,GCTCCTTTCCAGATTGTCCAGCATGCCACTGCCCCAGATACGGAGTCACCTAGTGCAG,9380 fluorescence intensity (a.u.)
8,CTTTCTGTTAGGCCCCACCTGTCGGTGAGACAGCGCGGAGCGGAGTCACCTAGTGCAG,8940 fluorescence intensity (a.u.)
9,TGCTCTATAAATACCAGCTTCCTCTTGCCTCTCAACCCATCGGAGTCACCTAGTGCAG,8530 fluorescence intensity (a.u.)
10,CTTCCGTGTTTGGTTTCCGATGTGATTTCGGGGCCGGTTTCGGAGTCACCTAGTGCAG,10900 fluorescence intensity (a.u.)
11,TAATCTTTGTTTGGCCCTTGTTAAAGGAGATGTTAATTCTCGGAGTCACCTAGTGCAG,8180 fluorescence intensity (a.u.)
12,ATTCTTTGCTTTTATCCCCTTGTGCTGTTCTCTCCTTGATCGGAGTCACCTAGTGCAG,11700 fluorescence intensity (a.u.)
13,ATGCTTCTTCATGAGCTTGTCATTGCCATCTTACATTTCTCGGAGTCACCTAGTGCAG,9750 fluorescence intensity (a.u.)
14,ACACTGGATGTCTCGTTATCGATTTCTCGATCTCTCCACGCGGAGTCACCTAGTGCAG,10400 fluorescence intensity (a.u.)
15,AGCTTTTCCCCGCCGACCGACACCCTTCTTCTCACCCATTCGGAGTCACCTAGTGCAG,8950 fluorescence intensity (a.u.)
16,GGCTACCGTCGCGCCGCCACCGCGCCACTGCGTCGTCACCCGGAGTCACCTAGTGCAG,8620 fluorescence intensity (a.u.)
17,TCTCCGAGCGCTTATTTATTACTAACTTGACCAATCAAGCCGGAGTCACCTAGTGCAG,8770 fluorescence intensity (a.u.)
18,ATATAAGCGATTTTGAGTTTTTGTTTGCGCTATTTGACCACGGAGTCACCTAGTGCAG,10000 fluorescence intensity (a.u.)
19,GTCCCACGCAACCAATCAACCAATTTCCCGCGCGCTGTCACGGAGTCACCTAGTGCAG,8280 fluorescence intensity (a.u.)
20,ACTGCGTGACAGCCACCGTTATTAGCACGTCAACGACTGACGGAGTCACCTAGTGCAG,8390 fluorescence intensity (a.u.)
21,TGTGCCACGTTGGTCCCGTGCTAAACTTTTTTCCGTTTTGCGGAGTCACCTAGTGCAG,8540 fluorescence intensity (a.u.)

# Laid out differently: results already given
row | Sequence | binding signal
14 | TCTCATTGGCCGGAACAAGTCACGCCACGCCCGTTTCCTCCGGAGTCACCTAGTGCAG | 8150 fluorescence intensity (a.u.)
15 | TTAATATGTAGCTTATGTTTTGTGGGTAGTATAGGTATATCGGAGTCACCTAGTGCAG | 9300 fluorescence intensity (a.u.)
16 | GCACACGTTGTACTACAACCCTAGCAGTCAGCTCTGCTTTCGGAGTCACCTAGTGCAG | 8960 fluorescence intensity (a.u.)
17 | CGCTACTCATACGATCCCGCTTGTCTCTCGGCTTCAACCTCGGAGTCACCTAGTGCAG | 11200 fluorescence intensity (a.u.)
18 | ATTCAAGGAGTTGTTCAAAGCTACCAATGGCTTTGTTGACCGGAGTCACCTAGTGCAG | 8080 fluorescence intensity (a.u.)
